From paper PMC11106261 come the findings set out here.

Chains of the proteins cited; added tags and fusions are not shown.
UniProt P25490: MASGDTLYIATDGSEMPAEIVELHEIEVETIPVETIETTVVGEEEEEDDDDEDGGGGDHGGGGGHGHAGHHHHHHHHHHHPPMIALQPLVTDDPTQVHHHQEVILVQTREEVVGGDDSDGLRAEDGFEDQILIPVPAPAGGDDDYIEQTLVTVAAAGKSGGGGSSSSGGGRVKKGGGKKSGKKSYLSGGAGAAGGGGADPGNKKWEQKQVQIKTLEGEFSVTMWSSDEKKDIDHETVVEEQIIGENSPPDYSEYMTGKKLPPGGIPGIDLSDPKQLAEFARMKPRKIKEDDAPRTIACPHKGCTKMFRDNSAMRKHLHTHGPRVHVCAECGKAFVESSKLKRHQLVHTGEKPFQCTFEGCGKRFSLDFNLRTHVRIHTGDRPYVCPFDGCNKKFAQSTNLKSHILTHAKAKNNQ
UniProt Q93009: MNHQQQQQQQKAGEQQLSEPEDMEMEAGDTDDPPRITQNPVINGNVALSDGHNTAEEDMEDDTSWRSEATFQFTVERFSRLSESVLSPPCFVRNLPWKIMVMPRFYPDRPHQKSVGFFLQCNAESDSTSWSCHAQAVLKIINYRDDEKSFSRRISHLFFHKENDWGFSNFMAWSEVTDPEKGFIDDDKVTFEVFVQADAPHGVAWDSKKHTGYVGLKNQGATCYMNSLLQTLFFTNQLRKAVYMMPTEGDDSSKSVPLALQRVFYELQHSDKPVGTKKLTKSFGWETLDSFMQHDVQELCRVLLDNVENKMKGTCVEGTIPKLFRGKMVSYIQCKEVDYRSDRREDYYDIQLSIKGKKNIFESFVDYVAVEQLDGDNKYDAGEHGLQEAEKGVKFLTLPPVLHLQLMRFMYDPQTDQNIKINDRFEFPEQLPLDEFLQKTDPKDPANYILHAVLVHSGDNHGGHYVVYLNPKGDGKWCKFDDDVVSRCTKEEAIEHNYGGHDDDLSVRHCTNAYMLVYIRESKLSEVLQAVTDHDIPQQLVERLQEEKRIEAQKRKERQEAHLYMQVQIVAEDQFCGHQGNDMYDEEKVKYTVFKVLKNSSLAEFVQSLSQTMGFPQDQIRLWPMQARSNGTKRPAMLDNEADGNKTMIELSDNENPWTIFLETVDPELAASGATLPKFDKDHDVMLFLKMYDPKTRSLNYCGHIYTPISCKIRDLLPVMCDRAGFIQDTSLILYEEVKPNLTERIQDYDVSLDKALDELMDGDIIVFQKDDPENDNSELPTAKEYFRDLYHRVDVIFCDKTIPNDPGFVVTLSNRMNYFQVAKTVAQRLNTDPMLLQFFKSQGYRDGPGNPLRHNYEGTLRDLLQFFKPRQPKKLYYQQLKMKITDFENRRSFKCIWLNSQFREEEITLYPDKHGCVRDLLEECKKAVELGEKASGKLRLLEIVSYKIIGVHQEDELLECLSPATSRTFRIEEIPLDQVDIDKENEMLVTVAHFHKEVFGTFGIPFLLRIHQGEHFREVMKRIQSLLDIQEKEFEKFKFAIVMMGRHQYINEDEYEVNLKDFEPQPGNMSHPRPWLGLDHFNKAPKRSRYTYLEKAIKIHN

The target in the experiment is Flag-YY1 (Yin Yang 1), expressed in HCT116 cells (human) (UniProt P25490). Kind of experiment: affinity purification with mass spectrometry; whole-cell extracts from HCT116 cells expressing Flag-YY1; isolated YY1 protein separated by SDS-PAGE, bands cut out, in-gel tryptic digestion, LC-MS/MS.

Results are given in words; binding and its absence hold for the method and conditions named. Binding seen in cells or lysates may run through a third protein. Here binding means that the protein was enriched with, or labelled near, the bait; the list need not be complete.

With “Ubiquitin-specific protease 7 (USP7), endogenous in CRC cells (from UniProt Q93009 1-1102) (enzyme)”, the binding entry is on record as “binds”.
